{"source": "patent US20160074473A1", "about": "(Kinemed, Inc., priority 2014, published 2016)", "experiment": "peptide made by a vendor (Fmoc solid-phase peptide synthesis)", "conditions": "whole synthesis", "note": "Plain letter strings leave the end groups untold."}
{"sequence": "DWLKAFYDKVAEKLKEAFPDWAKAAYDKAAEKAKEAA", "values": [{"measurement": "final HPLC purity", "result": ">95", "unit": "%"}]}
